# Data as given in PubChem BioAssay AID1259405 (NCATS, 2018)
# Aim: 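Knock-downs that lift recombinant protein yield in hamster ovary cells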 (primary screen)
# System: Chinese hamster CHO-K1 ovary cells with stable secreted eGFP expression
# Knock-down reagent: single siRNA against mouse genes, 0.8 pmol siRNA per well (2 µl of 400 nM stock)
# Timing: 3 days
# Detection: 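Percent of the per-plate non-targeting control median for intracellular GFP per well by laser scanning cytometry and for cell viability by ATP luminescence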
# Reading the numbers: GFP, % of control: higher = more GFP per well, higher productivity; viability (ATP), % of control: higher = more viable cells (more ATP)
# Hit rule: 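Called active when intracellular GFP, relative to negative control, is at or above 120%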
# In all, the deposit lists about 50,000 reagents; below is an unselected part. Of all reagents, about 4,000 (8%) are marked active. 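Mouse siRNA library applied to hamster cells; one well for each siRNA.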 Unmarked entries are inactive. The numbers tell different reagents against one gene apart.
Gene,reagent,"GFP, % of control","viability (ATP), % of control"
Or9g3,1,119,83.1
Or9g3,2,30.4,50.5
Or9g3,3,104,89.2
Itih3,1,108,101
Itih3,2,88.7,86.3
Itih3,3,75.8,72
Bpi,1,98,124
Bpi,2,69.4,90.5
Bpi,3,38.7,52.2
Pik3ca,1,84.6,75.9
Mboat7,1,107,87.8
Mboat7,2,41.5,30.3
Mboat7,3,77,83.8
Klra2,1,40.4,86.4
Klra2,2,98.6,78.1
Zfp385c,1,76.9,71
Zfp385c,2,42,73.3
Zfp385c,3,42.2,53.5
H2-T23,1,66.2,92.2
H2-T23,2,70.3,68.2
H2-T23,3,59.3,64.7
Traf7,1,95.7,72.9
Traf7,2,93.1,104
Traf7,3,74.5,61.3
Or13a26,1,65.1,60.2
Or13a26,2,79.2,93.4
Or13a26,3,37.9,43.6
D030056L22Rik,1,76.8,88.8
D030056L22Rik,2,73.8,91.8
D030056L22Rik,3,83.8,92.9
Creb5,1,97.2,84.4
Creb5,2,101,35
Creb5,3,108,114
Tac4,1,64.9,77.1
Tac4,2,80.3,84.8
Tac4,3,118,95.2
Cnnm4,1,85.6,102
Cnnm4,2,70.3,68
Cnnm4,3,98.1,109
Cpped1,1,93.1,98.5
Cpped1,2,109,78.6
Cpped1,3,99.1,102
Dcps,1,68.6,72.1
Dcps,2,81.9,78
Dcps,3,28.9,47.5
Yy1,1,75.8,83.1
Yy1,2,44.5,56.5
Yy1,3,44.8,63
Cldn9,1,66.7,33.4
Cldn9,2,149 (active),72.3
Cldn9,3,86.2,100
Usp1,1,81.3,99
Usp1,2,52.8,68.2
Usp1,3,73.8,79.9
S100g,1,101,142
S100g,2,70,69.8
Slc17a6,1,83.2,94.8
Slc17a6,2,68.1,61.5
Slc17a6,3,66.7,63.7
4930447C04Rik,1,99.4,109
4930447C04Rik,2,80.9,88.1
4930447C04Rik,3,90.4,139
Lcmt1,1,39.9,38
Lcmt1,2,79.4,86.5
Lcmt1,3,51.5,58.8
Pramel39-ps,1,107,78.1
Pramel39-ps,2,79.7,66.9
Pramel39-ps,3,86,78.1
Gstp3,1,43.6,64.5
Gstp3,2,143 (active),101
Gstp3,3,34.4,29.6
Rbm18,1,105,69.3
Rbm18,2,92.4,88.1
Rbm18,3,80.8,81.9
Nae1,1,119,76.6
Nae1,2,59,56.5
Nae1,3,69,76.8
Slco4c1,1,94.1,66.5
Slco4c1,2,79.2,90
Slco4c1,3,140 (active),101
Asap1,1,83.3,83.9
Asap1,2,79.3,85.8
Asap1,3,109,84.9
Fam246a,1,74.1,75.6
Fam246a,2,92.6,94
Fam246a,3,74.8,72.4

14 consecutive reagents from above:
Gene,reagent,"GFP, % of control","viability (ATP), % of control"
Traf7,1,95.7,72.9
Traf7,2,93.1,104
Traf7,3,74.5,61.3
Or13a26,1,65.1,60.2
Or13a26,2,79.2,93.4
Or13a26,3,37.9,43.6
D030056L22Rik,1,76.8,88.8
D030056L22Rik,2,73.8,91.8
D030056L22Rik,3,83.8,92.9
Creb5,1,97.2,84.4
Creb5,2,101,35
Creb5,3,108,114
Tac4,1,64.9,77.1
Tac4,2,80.3,84.8
